This is one part of the list. Most entries show no effect beyond the scatter of the controls.
Compound: Cc1nc(Nc2ncc(C(=O)Nc3c(C)cccc3Cl)s2)cc(N2CCN(CCO)CC2)n1 [dasatinib]
Test: log2 fold change of tryptic peptide abundance, ligand vs vehicle (limited proteolysis) (log2 ratio); higher = more trypsin-susceptible (destabilized)
Conditions: ligand concentration: 5 uM; sample: K562 cleared lysate

The chains behind the UniProt entries cited, without tags or fusion partners. Where a name states a change or a piece, a line headed by the entry shows the natural chain unless it says otherwise.
UniProt Q96L03: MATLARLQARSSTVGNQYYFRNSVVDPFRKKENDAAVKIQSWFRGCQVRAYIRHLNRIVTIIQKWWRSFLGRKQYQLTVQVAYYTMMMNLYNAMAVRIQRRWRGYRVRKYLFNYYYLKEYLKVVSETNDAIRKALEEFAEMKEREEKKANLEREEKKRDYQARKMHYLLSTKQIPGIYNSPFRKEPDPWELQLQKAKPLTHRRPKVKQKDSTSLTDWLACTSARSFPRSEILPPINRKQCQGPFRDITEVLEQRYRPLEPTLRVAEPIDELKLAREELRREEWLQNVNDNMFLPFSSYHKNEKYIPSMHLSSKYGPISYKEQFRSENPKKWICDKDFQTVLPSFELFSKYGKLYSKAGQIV
UniProt Q96MW5: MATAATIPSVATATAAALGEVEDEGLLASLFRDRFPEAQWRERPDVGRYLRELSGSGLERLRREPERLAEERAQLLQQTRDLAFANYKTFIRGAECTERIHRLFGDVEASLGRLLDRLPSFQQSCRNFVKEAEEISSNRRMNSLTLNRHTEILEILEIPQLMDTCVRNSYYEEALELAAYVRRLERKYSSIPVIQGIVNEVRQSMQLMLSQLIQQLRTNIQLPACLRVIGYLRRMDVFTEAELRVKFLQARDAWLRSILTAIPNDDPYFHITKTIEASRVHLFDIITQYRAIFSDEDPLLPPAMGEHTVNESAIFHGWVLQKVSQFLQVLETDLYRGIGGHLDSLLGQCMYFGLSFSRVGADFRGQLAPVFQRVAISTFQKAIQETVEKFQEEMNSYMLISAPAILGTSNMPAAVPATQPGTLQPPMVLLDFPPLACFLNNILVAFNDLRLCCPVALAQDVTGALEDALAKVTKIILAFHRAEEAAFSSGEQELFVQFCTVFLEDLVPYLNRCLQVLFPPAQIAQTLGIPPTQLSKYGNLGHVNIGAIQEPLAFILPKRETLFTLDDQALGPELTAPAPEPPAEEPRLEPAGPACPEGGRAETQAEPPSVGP
UniProt Q96GX2: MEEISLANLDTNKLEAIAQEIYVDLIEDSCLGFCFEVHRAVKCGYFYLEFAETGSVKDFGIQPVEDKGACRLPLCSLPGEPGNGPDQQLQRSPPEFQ
UniProt Q96RY5: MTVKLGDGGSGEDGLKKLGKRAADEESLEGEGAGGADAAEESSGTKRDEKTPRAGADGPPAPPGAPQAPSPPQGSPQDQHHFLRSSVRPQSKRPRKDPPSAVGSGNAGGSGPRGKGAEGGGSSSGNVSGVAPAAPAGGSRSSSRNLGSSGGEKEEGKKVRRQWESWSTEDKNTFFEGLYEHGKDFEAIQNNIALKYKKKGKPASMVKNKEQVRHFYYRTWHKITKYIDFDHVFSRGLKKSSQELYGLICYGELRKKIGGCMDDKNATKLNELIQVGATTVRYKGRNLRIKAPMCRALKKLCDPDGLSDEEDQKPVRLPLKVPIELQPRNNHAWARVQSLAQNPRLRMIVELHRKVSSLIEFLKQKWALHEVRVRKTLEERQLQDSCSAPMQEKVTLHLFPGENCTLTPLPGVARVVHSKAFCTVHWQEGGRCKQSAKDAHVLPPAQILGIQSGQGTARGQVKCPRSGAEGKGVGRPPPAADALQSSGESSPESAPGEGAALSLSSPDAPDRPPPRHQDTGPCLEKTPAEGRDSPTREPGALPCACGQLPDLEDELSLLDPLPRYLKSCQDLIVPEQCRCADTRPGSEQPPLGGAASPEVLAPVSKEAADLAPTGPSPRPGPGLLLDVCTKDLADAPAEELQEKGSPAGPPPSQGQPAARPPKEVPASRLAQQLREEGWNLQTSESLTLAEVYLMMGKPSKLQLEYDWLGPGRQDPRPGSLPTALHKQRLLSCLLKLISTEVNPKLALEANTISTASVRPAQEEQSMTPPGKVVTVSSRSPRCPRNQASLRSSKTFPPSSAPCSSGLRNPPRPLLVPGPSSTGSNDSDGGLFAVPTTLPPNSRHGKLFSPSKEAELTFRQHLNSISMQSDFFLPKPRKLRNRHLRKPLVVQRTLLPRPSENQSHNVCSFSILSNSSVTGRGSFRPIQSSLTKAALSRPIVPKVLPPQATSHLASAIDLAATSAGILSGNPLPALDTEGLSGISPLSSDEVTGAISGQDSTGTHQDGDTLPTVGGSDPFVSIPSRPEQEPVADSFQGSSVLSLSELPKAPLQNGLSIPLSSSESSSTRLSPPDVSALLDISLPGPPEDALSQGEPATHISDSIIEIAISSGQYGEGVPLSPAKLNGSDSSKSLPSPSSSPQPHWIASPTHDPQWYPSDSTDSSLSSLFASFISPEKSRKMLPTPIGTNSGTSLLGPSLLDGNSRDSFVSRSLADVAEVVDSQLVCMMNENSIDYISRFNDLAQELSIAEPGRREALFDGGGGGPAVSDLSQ
UniProt Q96PV6, whole entry: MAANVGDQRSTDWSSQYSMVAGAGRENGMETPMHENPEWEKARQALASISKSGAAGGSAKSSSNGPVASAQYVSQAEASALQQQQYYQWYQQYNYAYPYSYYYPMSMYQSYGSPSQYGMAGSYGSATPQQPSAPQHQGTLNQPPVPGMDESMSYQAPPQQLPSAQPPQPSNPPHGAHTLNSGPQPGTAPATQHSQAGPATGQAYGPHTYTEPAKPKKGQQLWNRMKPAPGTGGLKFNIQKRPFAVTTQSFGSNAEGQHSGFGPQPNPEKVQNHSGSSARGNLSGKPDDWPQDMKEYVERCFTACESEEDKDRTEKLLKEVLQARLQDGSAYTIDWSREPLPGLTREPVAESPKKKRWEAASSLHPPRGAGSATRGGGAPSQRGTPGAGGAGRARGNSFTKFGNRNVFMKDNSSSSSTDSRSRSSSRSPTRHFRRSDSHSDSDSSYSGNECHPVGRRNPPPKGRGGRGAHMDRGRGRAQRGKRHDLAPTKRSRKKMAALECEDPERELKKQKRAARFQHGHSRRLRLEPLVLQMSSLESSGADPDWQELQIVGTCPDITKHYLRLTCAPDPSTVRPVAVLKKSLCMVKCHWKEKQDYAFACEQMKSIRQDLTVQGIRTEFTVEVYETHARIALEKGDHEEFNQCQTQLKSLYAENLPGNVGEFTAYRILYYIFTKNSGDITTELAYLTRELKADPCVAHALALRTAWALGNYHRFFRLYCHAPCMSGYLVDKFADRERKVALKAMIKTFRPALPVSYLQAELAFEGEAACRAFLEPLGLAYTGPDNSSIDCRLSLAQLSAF
UniProt Q96JB2: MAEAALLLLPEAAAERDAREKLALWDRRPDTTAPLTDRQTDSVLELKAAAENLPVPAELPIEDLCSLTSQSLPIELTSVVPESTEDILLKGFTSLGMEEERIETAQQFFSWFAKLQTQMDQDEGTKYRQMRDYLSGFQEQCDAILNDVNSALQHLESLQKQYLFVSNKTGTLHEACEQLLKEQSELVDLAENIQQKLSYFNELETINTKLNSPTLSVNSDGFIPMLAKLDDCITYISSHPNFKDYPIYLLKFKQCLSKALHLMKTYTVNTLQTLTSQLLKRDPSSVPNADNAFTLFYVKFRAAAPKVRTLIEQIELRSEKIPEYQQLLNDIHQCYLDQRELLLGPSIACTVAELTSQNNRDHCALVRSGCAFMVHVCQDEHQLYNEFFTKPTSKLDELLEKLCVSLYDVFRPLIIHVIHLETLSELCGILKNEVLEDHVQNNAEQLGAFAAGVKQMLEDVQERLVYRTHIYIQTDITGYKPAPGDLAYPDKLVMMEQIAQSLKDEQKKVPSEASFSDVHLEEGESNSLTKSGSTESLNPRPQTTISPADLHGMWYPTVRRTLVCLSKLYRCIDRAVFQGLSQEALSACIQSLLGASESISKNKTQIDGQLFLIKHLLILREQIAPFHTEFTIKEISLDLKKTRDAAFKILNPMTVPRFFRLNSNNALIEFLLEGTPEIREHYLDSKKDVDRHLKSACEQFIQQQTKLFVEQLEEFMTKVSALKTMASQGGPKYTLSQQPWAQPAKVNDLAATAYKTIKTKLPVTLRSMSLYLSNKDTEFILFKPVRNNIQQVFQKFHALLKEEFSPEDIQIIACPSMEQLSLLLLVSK
UniProt Q96IJ6: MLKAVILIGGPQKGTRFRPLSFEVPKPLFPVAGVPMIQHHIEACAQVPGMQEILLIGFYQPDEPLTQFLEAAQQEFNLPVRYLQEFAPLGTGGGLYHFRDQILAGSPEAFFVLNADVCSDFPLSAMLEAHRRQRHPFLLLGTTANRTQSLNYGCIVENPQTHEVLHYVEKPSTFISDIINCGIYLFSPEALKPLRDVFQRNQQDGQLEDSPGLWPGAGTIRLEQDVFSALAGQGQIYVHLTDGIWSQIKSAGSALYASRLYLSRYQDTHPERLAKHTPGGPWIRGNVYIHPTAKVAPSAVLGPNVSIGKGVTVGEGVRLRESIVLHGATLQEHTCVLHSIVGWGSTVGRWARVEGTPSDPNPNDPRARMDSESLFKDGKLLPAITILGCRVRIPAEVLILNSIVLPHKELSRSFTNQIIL
UniProt Q96RQ3: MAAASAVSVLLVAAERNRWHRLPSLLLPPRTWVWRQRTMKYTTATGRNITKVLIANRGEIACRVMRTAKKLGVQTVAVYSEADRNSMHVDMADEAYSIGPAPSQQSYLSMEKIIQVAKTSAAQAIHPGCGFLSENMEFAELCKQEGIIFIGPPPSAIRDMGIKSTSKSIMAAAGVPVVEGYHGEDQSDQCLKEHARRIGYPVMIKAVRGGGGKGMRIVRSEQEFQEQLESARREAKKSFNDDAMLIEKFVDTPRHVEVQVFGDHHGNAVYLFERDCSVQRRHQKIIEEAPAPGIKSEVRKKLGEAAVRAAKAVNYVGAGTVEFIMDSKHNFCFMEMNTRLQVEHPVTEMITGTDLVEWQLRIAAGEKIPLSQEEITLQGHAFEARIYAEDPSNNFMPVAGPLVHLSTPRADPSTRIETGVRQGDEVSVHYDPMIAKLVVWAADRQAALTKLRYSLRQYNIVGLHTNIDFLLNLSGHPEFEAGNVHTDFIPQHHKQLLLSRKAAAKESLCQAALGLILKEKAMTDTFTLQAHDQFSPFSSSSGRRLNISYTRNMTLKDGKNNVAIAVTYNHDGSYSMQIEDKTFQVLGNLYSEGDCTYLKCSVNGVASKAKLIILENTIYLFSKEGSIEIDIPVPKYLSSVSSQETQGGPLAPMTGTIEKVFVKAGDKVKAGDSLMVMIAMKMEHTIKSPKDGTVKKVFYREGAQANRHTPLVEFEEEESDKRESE
UniProt Q96S38: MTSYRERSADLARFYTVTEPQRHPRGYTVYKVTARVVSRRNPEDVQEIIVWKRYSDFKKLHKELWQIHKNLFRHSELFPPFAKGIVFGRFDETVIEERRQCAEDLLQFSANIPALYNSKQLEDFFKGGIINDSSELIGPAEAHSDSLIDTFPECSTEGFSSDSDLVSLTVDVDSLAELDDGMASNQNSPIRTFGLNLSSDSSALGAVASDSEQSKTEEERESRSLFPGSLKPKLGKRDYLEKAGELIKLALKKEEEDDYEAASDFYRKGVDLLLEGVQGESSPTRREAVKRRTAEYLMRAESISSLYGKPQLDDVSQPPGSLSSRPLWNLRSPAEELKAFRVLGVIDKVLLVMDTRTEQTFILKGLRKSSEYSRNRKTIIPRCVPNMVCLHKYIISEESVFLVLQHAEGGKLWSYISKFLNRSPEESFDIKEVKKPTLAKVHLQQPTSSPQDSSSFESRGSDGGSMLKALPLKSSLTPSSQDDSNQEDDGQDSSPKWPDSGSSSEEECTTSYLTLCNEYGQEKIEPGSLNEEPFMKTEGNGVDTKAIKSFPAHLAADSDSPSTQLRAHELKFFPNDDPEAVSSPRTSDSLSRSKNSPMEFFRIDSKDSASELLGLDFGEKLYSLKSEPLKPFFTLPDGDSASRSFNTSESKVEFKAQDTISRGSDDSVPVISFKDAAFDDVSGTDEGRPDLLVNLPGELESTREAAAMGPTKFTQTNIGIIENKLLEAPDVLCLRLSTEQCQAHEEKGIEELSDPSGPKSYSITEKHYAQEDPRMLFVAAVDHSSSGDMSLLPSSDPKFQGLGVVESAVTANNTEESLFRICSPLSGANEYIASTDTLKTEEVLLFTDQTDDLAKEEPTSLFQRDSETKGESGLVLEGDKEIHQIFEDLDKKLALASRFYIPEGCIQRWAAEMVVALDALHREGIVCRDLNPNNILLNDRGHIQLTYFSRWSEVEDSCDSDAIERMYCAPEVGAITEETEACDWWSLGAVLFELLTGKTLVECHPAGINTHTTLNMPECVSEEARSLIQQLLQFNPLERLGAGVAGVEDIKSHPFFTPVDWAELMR
UniProt Q96IZ5: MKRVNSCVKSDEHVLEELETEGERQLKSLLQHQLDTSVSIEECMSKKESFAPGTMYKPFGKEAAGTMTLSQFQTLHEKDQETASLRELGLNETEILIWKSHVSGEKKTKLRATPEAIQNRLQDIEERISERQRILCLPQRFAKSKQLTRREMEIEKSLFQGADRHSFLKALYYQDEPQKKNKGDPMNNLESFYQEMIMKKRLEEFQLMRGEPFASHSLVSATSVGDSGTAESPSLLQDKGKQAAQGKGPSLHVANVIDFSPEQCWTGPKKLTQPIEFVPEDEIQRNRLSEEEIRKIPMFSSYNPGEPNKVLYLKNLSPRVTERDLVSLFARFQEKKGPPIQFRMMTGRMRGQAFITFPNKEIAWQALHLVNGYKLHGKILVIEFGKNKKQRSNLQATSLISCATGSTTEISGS

Row | Target | log2 fold change
1 | CEP63 (peptide sequence: FLEEEELR, peptide start residue: 666) (UniProt Q96MT8) | 0.467
2 | UniProt Q96L03 (peptide sequence: KKENDAAVK, peptide start residue: 30) | -0.304
3 | COG8 (peptide sequence: GQLAPVFQR, peptide start residue: 365) (UniProt Q96MW5) | 0.186
4 | ATXN7L3B (peptide sequence: DFGIQPVEDK, peptide start residue: 58) (UniProt Q96GX2) | -0.0433
5 | CRAMP1 (peptide sequence: KDPPSAVGSGNAGGSGPR, peptide start residue: 96) (UniProt Q96RY5) | 0.383
6 | C8orf76 (peptide sequence: SGPPASYCAK, peptide start residue: 25) (UniProt Q96K31) | 0.136
7 | UniProt Q96MD2 (peptide sequence: HLFGGQSQK, peptide start residue: 239) | -0.214
8 | SNX27 (peptide sequence: SESGYGFNVR, peptide start residue: 49) (UniProt Q96L92) | -0.226
9 | MCEE (peptide sequence: IGAHGKPVIFLHPK, peptide start residue: 151) (UniProt Q96PE7) | -0.0749
10 | UniProt Q96IY4 (peptide sequence: VSGKEQAAK, peptide start residue: 163) | -0.00749
11 | UniProt Q96HM7 (peptide sequence: GHMHNGLNYR, peptide start residue: 68) | 0.442
12 | ARAP1 (peptide sequence: DLPDGLFTR, peptide start residue: 1037) (UniProt Q96P48) | -0.301
13 | LENG8 (peptide sequence: LTCAPDPSTVRPVAVLKK, peptide start residue: 564) (UniProt Q96PV6) | -0.261
14 | NSMCE2 (peptide sequence: NKVCGHTYEEDAIVR, peptide start residue: 182) (UniProt Q96MF7) | 0.186
15 | COG3 (peptide sequence: DHCALVR, peptide start residue: 361) (UniProt Q96JB2) | -0.338
16 | TUBGCP6 (peptide sequence: VGENVSDVAPIR, peptide start residue: 1225) (UniProt Q96RT7) | -0.157
17 | GMPPA (peptide sequence: LLPAITILGCRVR, peptide start residue: 380) (UniProt Q96IJ6) | -0.212
18 | UniProt Q96GC6 (peptide sequence: KTFSRSTK, peptide start residue: 486) | -0.0367
19 | ACAP3 (peptide sequence: SLGVHCSK, peptide start residue: 447) (UniProt Q96P50) | -0.239
20 | CDKN2AIPNL (peptide sequence: QAADFAEQFR, peptide start residue: 19) (UniProt Q96HQ2) | -0.415
21 | UniProt Q96L50 (peptide sequence: GKGVRAVLSLCQQTSR, peptide start residue: 23) | -0.321
22 | PLEKHA8 (peptide sequence: YITNKEEFTTLQK, peptide start residue: 372) (UniProt Q96JA3) | 0.163
23 | MTMR9 (peptide sequence: GGGFEQEAHYPQWR, peptide start residue: 249) (UniProt Q96QG7) | -0.639
24 | MCCC1 (peptide sequence: IIEEAPAPGIK, peptide start residue: 285) (UniProt Q96RQ3) | 0.394
25 | CDCA5 (peptide sequence: ISFFLEKENEPPGR, peptide start residue: 82) (UniProt Q96FF9) | -0.256
26 | RPS6KC1 (peptide sequence: SFPAHLAADSDSPSTQLR, peptide start residue: 549) (UniProt Q96S38) | 0.232
27 | SLC35E1 (peptide sequence: SPLEKPHNGLLFPQHGDYQYGR, peptide start residue: 363) (UniProt Q96K37) | 0.214
28 | RBM41 (peptide sequence: KLTQPIEFVPEDEIQR, peptide start residue: 270) (UniProt Q96IZ5) | -0.48

Laid out differently: entries from further up.
Row,Target,log2 fold change
22,"PLEKHA8 (peptide sequence: YITNKEEFTTLQK, peptide start residue: 372) (UniProt Q96JA3)",0.163
23,"MTMR9 (peptide sequence: GGGFEQEAHYPQWR, peptide start residue: 249) (UniProt Q96QG7)",-0.639
24,"MCCC1 (peptide sequence: IIEEAPAPGIK, peptide start residue: 285) (UniProt Q96RQ3)",0.394
25,"CDCA5 (peptide sequence: ISFFLEKENEPPGR, peptide start residue: 82) (UniProt Q96FF9)",-0.256
26,"RPS6KC1 (peptide sequence: SFPAHLAADSDSPSTQLR, peptide start residue: 549) (UniProt Q96S38)",0.232
27,"SLC35E1 (peptide sequence: SPLEKPHNGLLFPQHGDYQYGR, peptide start residue: 363) (UniProt Q96K37)",0.214
28,"RBM41 (peptide sequence: KLTQPIEFVPEDEIQR, peptide start residue: 270) (UniProt Q96IZ5)",-0.48

Source: the supplement of paper PMC12819154, “High-throughput peptide-centric local stability assay extends protein–ligand identification to membrane proteins, tissues and bacteria” (Nature Structural & Molecular Biology, 2025)
